Among the data in publication PMC9631052 are binding values, retold here.

These are yes or no findings as the source states them, for the method shown. Binding seen in cells or lysates may run through a third protein. Binding calls can cover weak binding; strength is not graded here.

For this assay, the target named is T1, VAMP‐associated protein A (human (endogenous in HCCLM3‐BM4)) (UniProt Q9P0L0).
T1 sequence: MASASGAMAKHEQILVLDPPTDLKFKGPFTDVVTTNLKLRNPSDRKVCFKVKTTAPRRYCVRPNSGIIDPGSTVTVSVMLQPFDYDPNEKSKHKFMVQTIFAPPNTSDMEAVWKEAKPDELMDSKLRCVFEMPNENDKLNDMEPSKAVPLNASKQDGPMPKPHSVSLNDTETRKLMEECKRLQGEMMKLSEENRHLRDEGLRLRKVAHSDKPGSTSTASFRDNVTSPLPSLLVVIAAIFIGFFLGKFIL
Briefly: co-IP; endogenous proteins in HCCLM3‐BM4 cells and in LOs derived from HCCLM3‐BM4 cells (Figure 1I, Figure S2A).

“αV‐integrin (human (endogenous in HCCLM3‐BM4))”: the binding entry is “binds”.
